Read-outs that look alike come from different tables or passages of the source. Results are given in words; binding and its absence hold for the method and conditions named. In cells and extracts the contact can be indirect. Here binding means that the protein was enriched with, or labelled near, the bait; the list need not be complete. A no says only that the protein was not detected with the bait.

Sequences of proteins named here, by UniProt entry; tags and fusion partners are left off. Residues count along the entry.
UniProt E9Q414, residues 28-4505: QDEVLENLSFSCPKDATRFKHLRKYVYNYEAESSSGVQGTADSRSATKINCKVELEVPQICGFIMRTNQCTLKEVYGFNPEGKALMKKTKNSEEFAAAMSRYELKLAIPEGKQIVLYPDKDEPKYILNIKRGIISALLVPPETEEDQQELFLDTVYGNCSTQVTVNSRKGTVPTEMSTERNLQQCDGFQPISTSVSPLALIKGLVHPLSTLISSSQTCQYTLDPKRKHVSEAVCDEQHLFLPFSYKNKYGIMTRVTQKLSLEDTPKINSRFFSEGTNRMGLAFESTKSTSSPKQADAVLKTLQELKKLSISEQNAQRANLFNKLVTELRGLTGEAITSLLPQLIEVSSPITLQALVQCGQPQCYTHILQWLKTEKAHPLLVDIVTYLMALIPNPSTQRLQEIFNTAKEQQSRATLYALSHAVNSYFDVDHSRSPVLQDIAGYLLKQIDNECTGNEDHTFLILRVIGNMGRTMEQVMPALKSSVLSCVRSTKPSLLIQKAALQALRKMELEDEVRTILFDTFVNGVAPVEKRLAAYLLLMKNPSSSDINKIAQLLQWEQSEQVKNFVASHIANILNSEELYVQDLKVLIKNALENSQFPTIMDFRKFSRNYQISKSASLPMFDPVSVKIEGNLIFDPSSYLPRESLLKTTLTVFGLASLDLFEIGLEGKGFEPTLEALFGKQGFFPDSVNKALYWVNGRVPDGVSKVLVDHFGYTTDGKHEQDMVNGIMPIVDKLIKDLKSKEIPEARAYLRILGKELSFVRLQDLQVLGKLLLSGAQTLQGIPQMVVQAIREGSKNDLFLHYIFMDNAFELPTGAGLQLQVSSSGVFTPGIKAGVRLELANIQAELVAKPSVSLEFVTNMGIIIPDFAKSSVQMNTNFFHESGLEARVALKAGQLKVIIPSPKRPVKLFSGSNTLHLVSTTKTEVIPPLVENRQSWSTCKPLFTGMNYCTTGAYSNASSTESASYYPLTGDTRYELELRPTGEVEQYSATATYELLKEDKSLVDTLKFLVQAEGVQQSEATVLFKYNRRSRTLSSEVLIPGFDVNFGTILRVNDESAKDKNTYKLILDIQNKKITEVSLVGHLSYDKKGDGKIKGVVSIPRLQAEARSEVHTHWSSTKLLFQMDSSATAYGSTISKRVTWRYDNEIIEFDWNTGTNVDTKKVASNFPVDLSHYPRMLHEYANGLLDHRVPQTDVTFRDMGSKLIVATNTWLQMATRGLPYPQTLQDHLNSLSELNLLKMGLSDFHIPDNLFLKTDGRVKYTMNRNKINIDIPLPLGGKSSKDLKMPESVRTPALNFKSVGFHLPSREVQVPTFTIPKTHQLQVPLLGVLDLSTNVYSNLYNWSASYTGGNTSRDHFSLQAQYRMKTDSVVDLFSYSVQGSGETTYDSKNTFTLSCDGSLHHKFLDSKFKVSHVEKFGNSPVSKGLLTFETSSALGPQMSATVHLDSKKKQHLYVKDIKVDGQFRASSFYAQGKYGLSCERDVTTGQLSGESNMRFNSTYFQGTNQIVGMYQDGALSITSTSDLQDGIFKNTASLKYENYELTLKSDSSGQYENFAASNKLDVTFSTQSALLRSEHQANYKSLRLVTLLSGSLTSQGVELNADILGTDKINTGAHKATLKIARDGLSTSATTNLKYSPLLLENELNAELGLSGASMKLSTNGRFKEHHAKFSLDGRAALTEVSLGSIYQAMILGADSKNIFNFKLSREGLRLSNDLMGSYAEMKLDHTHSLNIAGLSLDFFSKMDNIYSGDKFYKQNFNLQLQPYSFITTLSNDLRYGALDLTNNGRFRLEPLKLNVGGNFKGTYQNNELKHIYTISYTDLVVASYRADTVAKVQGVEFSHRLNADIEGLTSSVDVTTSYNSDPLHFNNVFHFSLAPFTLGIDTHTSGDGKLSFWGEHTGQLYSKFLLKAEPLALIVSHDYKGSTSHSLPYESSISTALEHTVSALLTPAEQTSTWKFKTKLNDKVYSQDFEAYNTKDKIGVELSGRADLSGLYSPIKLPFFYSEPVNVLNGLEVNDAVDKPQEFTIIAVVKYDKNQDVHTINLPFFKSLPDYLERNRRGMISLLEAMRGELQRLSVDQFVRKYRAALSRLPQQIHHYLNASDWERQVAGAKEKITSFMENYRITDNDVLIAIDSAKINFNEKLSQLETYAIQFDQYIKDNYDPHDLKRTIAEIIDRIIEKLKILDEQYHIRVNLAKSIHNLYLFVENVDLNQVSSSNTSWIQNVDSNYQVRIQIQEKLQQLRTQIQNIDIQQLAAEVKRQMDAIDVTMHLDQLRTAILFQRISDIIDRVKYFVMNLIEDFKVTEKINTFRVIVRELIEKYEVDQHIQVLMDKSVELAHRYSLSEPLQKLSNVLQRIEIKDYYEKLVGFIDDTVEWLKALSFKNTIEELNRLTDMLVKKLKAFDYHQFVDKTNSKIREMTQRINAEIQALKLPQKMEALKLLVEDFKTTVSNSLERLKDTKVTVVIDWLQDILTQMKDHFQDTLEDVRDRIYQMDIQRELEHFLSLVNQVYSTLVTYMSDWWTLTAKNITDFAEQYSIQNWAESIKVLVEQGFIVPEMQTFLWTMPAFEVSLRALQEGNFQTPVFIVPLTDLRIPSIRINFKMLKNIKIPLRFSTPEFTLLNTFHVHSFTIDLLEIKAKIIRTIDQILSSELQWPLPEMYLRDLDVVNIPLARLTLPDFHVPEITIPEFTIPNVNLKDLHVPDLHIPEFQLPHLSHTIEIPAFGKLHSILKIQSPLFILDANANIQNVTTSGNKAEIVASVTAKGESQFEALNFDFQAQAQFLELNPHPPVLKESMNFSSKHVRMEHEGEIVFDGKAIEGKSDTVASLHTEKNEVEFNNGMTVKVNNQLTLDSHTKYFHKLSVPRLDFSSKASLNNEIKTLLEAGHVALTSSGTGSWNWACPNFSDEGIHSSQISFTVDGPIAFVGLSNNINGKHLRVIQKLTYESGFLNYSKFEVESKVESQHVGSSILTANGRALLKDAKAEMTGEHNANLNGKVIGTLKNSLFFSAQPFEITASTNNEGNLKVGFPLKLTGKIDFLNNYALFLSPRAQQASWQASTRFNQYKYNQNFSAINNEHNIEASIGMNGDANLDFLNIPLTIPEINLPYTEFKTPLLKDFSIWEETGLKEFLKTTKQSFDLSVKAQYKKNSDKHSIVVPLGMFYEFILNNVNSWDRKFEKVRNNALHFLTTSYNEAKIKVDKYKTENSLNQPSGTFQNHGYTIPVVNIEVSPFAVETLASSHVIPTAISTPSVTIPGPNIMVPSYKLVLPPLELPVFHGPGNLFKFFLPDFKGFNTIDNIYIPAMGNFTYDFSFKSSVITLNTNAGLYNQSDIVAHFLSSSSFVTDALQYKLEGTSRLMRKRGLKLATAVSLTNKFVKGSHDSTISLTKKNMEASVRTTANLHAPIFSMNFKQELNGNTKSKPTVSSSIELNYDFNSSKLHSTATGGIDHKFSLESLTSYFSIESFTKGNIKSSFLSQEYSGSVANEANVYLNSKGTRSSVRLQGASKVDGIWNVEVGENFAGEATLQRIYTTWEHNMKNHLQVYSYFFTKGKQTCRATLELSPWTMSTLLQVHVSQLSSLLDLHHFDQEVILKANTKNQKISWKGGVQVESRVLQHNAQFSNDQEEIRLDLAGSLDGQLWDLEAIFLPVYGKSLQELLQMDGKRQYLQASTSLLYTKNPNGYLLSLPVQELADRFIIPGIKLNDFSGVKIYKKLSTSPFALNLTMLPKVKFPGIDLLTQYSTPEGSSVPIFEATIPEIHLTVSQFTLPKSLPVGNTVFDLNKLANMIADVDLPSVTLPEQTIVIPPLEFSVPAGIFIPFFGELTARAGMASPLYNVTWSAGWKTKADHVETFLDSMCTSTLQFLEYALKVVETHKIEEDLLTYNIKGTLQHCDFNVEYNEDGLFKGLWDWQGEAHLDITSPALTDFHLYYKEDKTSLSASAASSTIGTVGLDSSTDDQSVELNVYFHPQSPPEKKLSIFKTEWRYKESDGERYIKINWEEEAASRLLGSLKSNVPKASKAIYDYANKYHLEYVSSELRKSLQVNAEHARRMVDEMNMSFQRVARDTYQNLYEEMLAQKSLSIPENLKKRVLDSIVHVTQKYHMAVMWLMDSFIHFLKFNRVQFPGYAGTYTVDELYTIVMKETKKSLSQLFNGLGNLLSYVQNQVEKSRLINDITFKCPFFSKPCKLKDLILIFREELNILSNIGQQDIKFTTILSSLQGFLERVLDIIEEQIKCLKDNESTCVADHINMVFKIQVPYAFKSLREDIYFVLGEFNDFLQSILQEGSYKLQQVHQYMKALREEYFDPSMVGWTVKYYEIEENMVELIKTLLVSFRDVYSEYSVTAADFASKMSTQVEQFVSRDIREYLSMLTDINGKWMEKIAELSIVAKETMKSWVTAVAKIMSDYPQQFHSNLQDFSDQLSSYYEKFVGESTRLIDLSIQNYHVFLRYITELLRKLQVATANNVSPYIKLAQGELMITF

Assay [1] has as its target T1, TurboID-FGF13-S (human) (UniProt Q92913).
T1 sequence: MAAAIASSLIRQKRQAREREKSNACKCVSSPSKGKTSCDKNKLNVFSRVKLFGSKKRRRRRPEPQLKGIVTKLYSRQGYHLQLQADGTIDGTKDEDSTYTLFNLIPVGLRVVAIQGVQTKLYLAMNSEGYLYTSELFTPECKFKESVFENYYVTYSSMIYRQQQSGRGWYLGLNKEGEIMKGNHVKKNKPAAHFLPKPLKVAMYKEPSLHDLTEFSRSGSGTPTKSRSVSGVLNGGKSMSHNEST
As to the kind of experiment: proximity labelling.

Assay [2] has as its target T1, TurboID-FGF13-S (human). As to the kind of experiment: proximity labelling. The source holds these as a separate data set.

Regarding APOB (from UniProt E9Q414 28-4505), the binding entry in assay [1] is reported as “no binding”.

B1: TEC kinase (protein, UniProt P24604 1-630)
chain: MNFNTILEEILIKRSQQKKKTSLLNYKERLCVLPKSVLSYYEGRAEKKYRKGVIDISKIKCVEIVKNDDGVIPCQNKFPFQVVHDANTLYIFAPSPQSRDRWVKKLKEEIKNNNNIMIKYHPKFWADGSYQCCRQTEKLAPGCEKYNLFESSIRKTLPPAPEIKKRRPPPPIPPEEENTEEIVVAMYDFQATEAHDLRLERGQEYIILEKNDLHWWRARDKYGSEGYIPSNYVTGKKSNNLDQYEWYCRNTNRSKAEQLLRTEDKEGGFMVRDSSQPGLYTVSLYTKFGGEGSSGFRHYHIKETATSPKKYYLAEKHAFGSIPEIIEYHKHNAAGLVTRLRYPVSTKGKNAPTTAGFSYDKWEINPSELTFMRELGSGLFGVVRLGKWRAQYKVAIKAIREGAMCEEDFIEEAKVMMKLTHPKLVQLYGVCTQQKPIYIVTEFMERGCLLNFLRQRQGHFSRDMLLSMCQDVCEGMEYLERNSFIHRDLAARNCLVNEAGVVKVSDFGMARYVLDDQYTSSSGAKFPVKWCPPEVFNYSRFSSKSDVWSFGVLMWEIFTEGRMPFEKNTNYEVVTMVTRGHRLHRPKLATKYLYEVMLRCWQERPEGRPSLEDLLRTIDELVECEETFGR
B1: the binding entry in assay [2] is listed as “no binding”.

B2: BTBD17 (protein, UniProt Q9DB72 29-478)
chain: AQRADVGGEAAGTAINHSHMLLQRLQDLLRQGNASDVILRVQAVGTDEVRAFHTHRLLLGLHSELFRELLSNQSEVMLRESRDCAAVFDKFIRYLYCGELTVLLAQAIPLHRLATKYRVASLQRGVADYMRAHLAGGVGPAVGWYHYAVSTGDEALRESCLQFLAWNLSAVAGSAEWGAVSPELLAQLLQRSDLVLQDELELFHALEAWLGRARPPPTVAERALRAIRYPMIPPAQLFQLQARSAALARHGPAVADLLLQAYQFHAASPLHYAKFFHVNGSAFLPRNYLAPAWGAPWVINNPARDDRSTSFQTQLGPSGHDAGRRITWNVLFSPRWLPVSLRPVYADAAGTALPAARPEDGRPRLVVTPASSGGDAAGVSFQKTVLVGARHQGRLLVRHAYSFHQSSEEAGDFLAHADLQRRNSEYLVENALHLHLIVKPVYHTLIRTPS
B2: the binding entry in assay [2] is given as “no binding”.
